Where two headings read alike, the source gives them in different places.

Series [1] is described as follows: Example 6: vapor pressure of formaldehyde, image stabilizer in conditioning bath.
The nature of series [2]: Example 1: measurement of formaldehyde vapor pressure (HCHO concentration).
Series [3] can be described thus: Example 2: yellow stain at the minimum density portion. To be noted: formaldehyde 4.0 mmol, 2 weeks 60° C., 70% RH.
For series [4] the following is noted: formaldehyde 4.0 mmol.
Setting [5] is: no formula (I) or (II) additive.

Regarding `Cc1ccn(CN(CCO)CCO)n1` [Compound A-11], the “Concentration of HCHO” value in series [1] (3 mmol/l in conditioning bath) amounted to 0.12 ppm. The “HCHO Concentration” value in series [2] (5 mmol/l) is listed as 0.20 ppm.

In the case of `c1cnn(CN2CCOCC2)c1` [Compound A-16], the “HCHO Concentration” value in series [2] (5 mmol/l) was 0.16 ppm.

With `c1cnn(CN2CCCCC2)c1` [Compound A-17], the “HCHO Concentration” value in series [2] (5 mmol/l) came to 0.18 ppm.

On to `c1cnn(CN2CCN(Cn3cccn3)CC2)c1` [Compound A-22], for which, in series [1] (3 mmol/l in conditioning bath), the “Concentration of HCHO” value was 0.07 ppm. The “HCHO Concentration” value in series [2] (5 mmol/l) came to 0.09 ppm.

As to `c1ncn(CN2CCN(Cn3cncn3)CC2)n1` [Compound A-23], the “Concentration of HCHO” value in series [1] (3 mmol/l in conditioning bath) amounted to 0.09 ppm. In addition, the “HCHO Concentration” value in series [2] (5 mmol/l) was determined as 0.10 ppm.

Consider `c1ncn(CN2CCOCC2)n1` [Compound A-26], for which the “HCHO Concentration” value in series [2] (5 mmol/l) stood at 0.13 ppm.

Consider `OCCN1CCN(Cn2cccn2)CC1` [Compound A-32], for which the “Concentration of HCHO” value in series [1] (3 mmol/l in conditioning bath) is 0.08 ppm.

As for `OCN1CCN(Cn2cncn2)CC1` [Compound A-45], the “Concentration of HCHO” value in series [1] (3 mmol/l in conditioning bath) is 0.09 ppm. In series [2] (5 mmol/l), the “HCHO Concentration” value was determined as 0.18 ppm.

As for `c1nc[nH]n1` [Compound I-4], the “Yellow Stain” value in series [3] (formula (I) 4 mmol) came out at 0.00; in series [3] (formula (I) 16 mmol) it was 0.01. For the same compound, the “Concentration of HCHO” value in series [4] (formula (I) 4 mmol) was found to be 0.15 ppm; in series [4] (formula (I) 16 mmol), 0.09 ppm.

Take `C=O` [Formaldehyde, reference compound]: the “Concentration of HCHO” value in series [1] (3 mmol/l in conditioning bath) is on record as 0.35 ppm; in series [1] (13 mmol/l in conditioning bath), 0.89 ppm; in series [4] (setting [5]), 0.5 ppm. Besides, in series [3] (setting [5]), the “Yellow Stain” value is listed as 0.00. Besides, the results for the “HCHO Concentration” value in series [2] (5 mmol/l) and in series [2] (27 mmol/l) were 0.35 ppm and 1.81 ppm, respectively.

Turning to `C1N2CN3CN1CN(C2)C3` [Hexamethylenetetramine, reference compound], the “Concentration of HCHO” value in series [1] (3 mmol/l in conditioning bath) is “less than 0.03 ppm”; in series [1] (13 mmol/l in conditioning bath) it was 0.07 ppm. Further, the “HCHO Concentration” value is on record as “less than 0.03 ppm” in series [2] (5 mmol/l) and 0.07 ppm in series [2] (27 mmol/l).

For `C1COCCN1` [II-21], the “Yellow Stain” value in series [3] (formula (II) 4 mmol) is 0.09. Moreover, in series [4] (formula (II) 4 mmol), the “Concentration of HCHO” value turned out to be 0.2 ppm.

`C1CNCCN1` [II-22]: the “Yellow Stain” value in series [3] (formula (II) 2 mmol) is given as 0.08; in series [3] (formula (II) 4 mmol), 0.16. In addition, the “Concentration of HCHO” value turned out to be 0.15 ppm in series [4] (formula (II) 2 mmol) and 0.10 ppm in series [4] (formula (II) 4 mmol).

These data come from patent US5270148A, “Processing solution for silver halide color photographic materials and method for processing the materials with the processing solution” (priority 1991, dated 1993).
